Our source for the TEAD-luciferase reporter activity values is the supplement of paper PMC10735217.

For this experiment, the system named is HEK293A TEAD-LUC reporter. In words: TEAD-luciferase reporter activity (YAP activation), robust Z score vs plate; higher = stronger YAP/TEAD activation. The conditions noted are these: 24 h. (Reporter assays use an easily measured gene product as a stand-in for the process of interest.)

The list shows a part of the results. This data set is noisy: repeats of one test often differ as much as different tests do.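 The human kidney-derived cells carry a stably integrated construct of eight TEAD-binding elements driving luciferase, read by luminescence in a drug-repurposing library screen. A compound counts as a hit when its signal is more than five robust Z scores above the plate mean.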

For `Cc1cc(F)ccc1[C@H]1C[C@@H](N2CCN3C(=O)CC[C@H]3C2)CCN1C(=O)N(C)[C@H](C)c1cc(C(F)(F)F)cc(C(F)(F)F)c1` [orvepitant], the TEAD-luciferase reporter activity is inactive: -1.2 (compound concentration: 200 nM), inactive: -1.23 (compound concentration: 2 uM) and inactive: 2.02 (compound concentration: 10 uM).

As to `COCCN1CCN(CC2CCN(c3ccc(Cl)cc3)C2=O)CC1` (stereo not given), the TEAD-luciferase reporter activity by setting is: (compound concentration: 200 nM) inactive: -0.519; (compound concentration: 2 uM) inactive: 2.88; (compound concentration: 10 uM) inactive: 4.59.

Take `Cc1nnc(SCC2=C(C(=O)O)N3C(=O)[C@@H](NC(=O)C(N)c4ccc(O)cc4)[C@H]3SC2)s1` (stereo not given in full): the TEAD-luciferase reporter activity was inactive: -0.0458 (compound concentration: 200 nM), inactive: 2.68 (compound concentration: 2 uM) and inactive: 0.0551 (compound concentration: 10 uM).

As to `CCN(CC)CCCc1c(C)[nH]c(CCSCc2csc(NC(=N)N)n2)nc1=O`, the TEAD-luciferase reporter activity reads like this: (compound concentration: 200 nM) inactive: -1.23; (compound concentration: 2 uM) inactive: 0.0577; (compound concentration: 10 uM) inactive: 0.164.

Turning to `Nc1nccc2c1nnn2Cc1c(F)cccc1F`, the TEAD-luciferase reporter activity was inactive: -0.666 (compound concentration: 200 nM), inactive: 3.48 (compound concentration: 2 uM) and inactive: 0.912 (compound concentration: 10 uM).

`CC(C)(C)C(O)(COc1ccc(Cl)cc1)Cn1cncn1` (stereo not given) [vibunazole]: the TEAD-luciferase reporter activity is inactive: -1.56 (compound concentration: 200 nM), inactive: -1.38 (compound concentration: 2 uM) and inactive: 4.38 (compound concentration: 10 uM).

As for `CNCC(=O)OCc1cccnc1N(C)C(=O)OC(C)[n+]1cnn(C[C@](O)(c2cc(F)ccc2F)[C@@H](C)c2nc(-c3ccc(C#N)cc3)cs2)c1` (stereo not given in full), the TEAD-luciferase reporter activity by setting is: (compound concentration: 200 nM) inactive: -0.202; (compound concentration: 2 uM) inactive: 0.842; (compound concentration: 10 uM) inactive: -0.427.

With `Cc1c(CC(C)(C)C(=O)O)n(Cc2ccc(Cl)cc2)c2ccc(F)cc12`, the TEAD-luciferase reporter activity is inactive: -1.47 (compound concentration: 200 nM), inactive: -0.216 (compound concentration: 2 uM) and inactive: 1.81 (compound concentration: 10 uM).

With `O=C(O)C(CCN1CCOCC1)(c1ccccc1)c1ccccc1`, the TEAD-luciferase reporter activity is inactive: 0.00424 (compound concentration: 200 nM), inactive: 1.31 (compound concentration: 2 uM) and inactive: -2.04 (compound concentration: 10 uM).

As to `COc1cccc(-c2ccc(CN3CCCC(NC(=O)c4cccc(Cl)c4)C3)cc2)c1` (stereo not given), the TEAD-luciferase reporter activity is inactive: -0.88 (compound concentration: 200 nM) and inactive: -1.02 (compound concentration: 10 uM).

On to `C=CCCCCCCCCCSC(N)=[NH2+]`, for which the TEAD-luciferase reporter activity reads like this: (compound concentration: 200 nM) inactive: -0.374; (compound concentration: 2 uM) inactive: -1.53; (compound concentration: 10 uM) inactive: 0.482.

With `Cc1c(CCO)sc[n+]1CCCCCCCCCCCC[n+]1csc(CCO)c1C` [Albitiazolium bromide], the TEAD-luciferase reporter activity (compound concentration: 200 nM) was inactive: -1.44, the TEAD-luciferase reporter activity (compound concentration: 2 uM) is inactive: -1.29 and the TEAD-luciferase reporter activity (compound concentration: 10 uM) is inactive: 1.7.

`CC1=C(/C=C/C(C)=C/C=C/c2ccc(C(=O)O)cc2)C(C)(C)CCC1` [Pelretin]: the TEAD-luciferase reporter activity is inactive: 4.8 (compound concentration: 200 nM), inactive: -0.19 (compound concentration: 2 uM) and inactive: 1.39 (compound concentration: 10 uM).

Turning to `O=C1Nc2cc(Cl)ccc2N(C(=O)CN(CCO)CCO)c2ccccc21` [Siltenzepine], the TEAD-luciferase reporter activity reads like this: (compound concentration: 200 nM) inactive: -0.0456; (compound concentration: 2 uM) inactive: -1.41; (compound concentration: 10 uM) inactive: -1.01.

For the molecule `C[C@H](CCC(=O)O)[C@H]1CC[C@H]2[C@@H]3[C@@H](O)C[C@@H]4C[C@H](O)CC[C@]4(C)[C@H]3CC[C@]12C`, the TEAD-luciferase reporter activity was inactive: -1.19 (compound concentration: 200 nM), inactive: -1.32 (compound concentration: 2 uM) and inactive: 0.61 (compound concentration: 10 uM).

Regarding `Cc1cc(C(=O)O)nn1Cc1cc(Br)ccc1OCc1ccc(Cl)cc1Cl`, the TEAD-luciferase reporter activity (compound concentration: 200 nM) was inactive: -1.57, the TEAD-luciferase reporter activity (compound concentration: 2 uM) is inactive: 0.0373 and the TEAD-luciferase reporter activity (compound concentration: 10 uM) was inactive: 0.926.

On to `CC(=O)N[C@@H](C=O)[C@@H](O)[C@H](O)[C@H](O)CO`, for which the TEAD-luciferase reporter activity was inactive: -0.267 (compound concentration: 200 nM), inactive: -1.44 (compound concentration: 2 uM) and inactive: -0.693 (compound concentration: 10 uM).

Take `CN1CCC(C(=O)N2CCCC3(Cc4ccccc4CN3C(=O)c3ccccc3)C2)CC1` (stereo not given): the TEAD-luciferase reporter activity (compound concentration: 200 nM) is inactive: -0.677 and the TEAD-luciferase reporter activity (compound concentration: 10 uM) is inactive: -0.749.

Take `NC[C@@H]1CC[C@H]1CN` [Lobaplatin]: the TEAD-luciferase reporter activity by setting is: (compound concentration: 200 nM) inactive: -1.69; (compound concentration: 10 uM) inactive: -1.72.

For the molecule `NC[C@@H]1CC[C@H]1CN`, the TEAD-luciferase reporter activity (compound concentration: 2 uM) is inactive: -0.313.

In the case of `Cc1cccc(N(C)C(=S)Oc2ccc3ccccc3c2)c1` [Tolnaftate], for the setting “compound concentration: 2 uM”, the TEAD-luciferase reporter activity is inactive: 2.86.

Regarding `Cc1cccc(N(C)C(=S)Oc2ccc3ccccc3c2)c1`, the TEAD-luciferase reporter activity runs as follows: (compound concentration: 200 nM) inactive: 0.478; (compound concentration: 10 uM) inactive: -0.666.

In the case of `CCOC(=O)c1cc(O)nc(O)n1`, the TEAD-luciferase reporter activity was inactive: -0.928 (compound concentration: 200 nM), inactive: -1.7 (compound concentration: 2 uM) and inactive: -0.488 (compound concentration: 10 uM).

Consider `COc1cc(NC(C)CCCN)c2ncccc2c1` (stereo not given) [primaquine, Liposome Co], for which the TEAD-luciferase reporter activity (compound concentration: 2 uM) is inactive: -2.47.

On to `COc1cc(NC(C)CCCN)c2ncccc2c1` (stereo not given) [Primaquine Diphosphate63-45-6], for which the TEAD-luciferase reporter activity reads like this: (compound concentration: 200 nM) inactive: -3.38; (compound concentration: 10 uM) inactive: 0.268.

In the case of `COC1=CC(=O)c2c(O)c3c(c(C)c2C1=O)C[C@@]1(O)[C@H](O[C@H]2CC[C@H](O[C@H]4C[C@@](C)(O)[C@H](OC(=O)c5c(C)ccc(C)c5O)[C@H](C)O4)[C@@H](C)O2)C(=O)/C(=C(/C)O)C(=O)[C@@]1(O)C3=O` [Polyketomycin], the TEAD-luciferase reporter activity is, setting by setting: (compound concentration: 200 nM) inactive: 0.239; (compound concentration: 2 uM) inactive: -0.764; (compound concentration: 10 uM) inactive: -0.356.

As to `C[C@@H](O)[C@H](NC(=O)[C@H]1CCCN1C(=O)[C@@H](N)CCCCN)C(=O)O`, the TEAD-luciferase reporter activity (compound concentration: 200 nM) is inactive: 4.59, the TEAD-luciferase reporter activity (compound concentration: 2 uM) was inactive: -0.649 and the TEAD-luciferase reporter activity (compound concentration: 10 uM) is inactive: 2.18.
